No constants are given. Whether binding was seen depends on the method and setting. Some entries that bind do so weakly or less than the wild type.
Biological target: human CLDN6 (human) (UniProt P56747)
Assay: flow cytometry on HEK293E cells expressing CLDN6

Protein sequences, listed by entry. Tags and fused reporters are not part of them. Lines headed by an entry give the natural chain unless they say otherwise; changes in a name come on top.
UniProt P56747: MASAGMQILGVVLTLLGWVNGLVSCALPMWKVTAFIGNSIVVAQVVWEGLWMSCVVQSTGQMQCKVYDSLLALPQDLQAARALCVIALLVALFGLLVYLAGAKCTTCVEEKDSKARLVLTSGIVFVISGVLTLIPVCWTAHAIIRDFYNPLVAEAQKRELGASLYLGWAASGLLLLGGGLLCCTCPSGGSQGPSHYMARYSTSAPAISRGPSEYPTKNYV

binding: binds
B1: XENP36956 (antibody, V domains shown)
VH: QVQLVQSGAEVKKPGASVKVSCKTSGYTFTEYTMHWVRQAPGQSLEWMGGIDPNNGNTHYNQKFQGRVTITVDKSASTAYMELSSLRSEDTAVYYCARILYFGRLYFDFWGAGTLVTVSS
VL: DIQMTQSPSSLSASVGDRVTITCQASEDIYNRLAWYQQKPGKVPKLLISGATSLETGVPSRFSGSGSGKDYTFTISSLQPEDIATYYCQQYWSAPLTFGGGTKVEIKR

From patent publication US20240400675A1
